Patent US8133978
These are yes or no findings as the source states them, for the method shown. A result given as binding can be weak or reduced; the word gives no strength.

Columns and labels:
[1] = target: Rhesus IL-18 (rhesus (rhesus/cynomolgus)); assay: SPR Biacore
[2] = target: Rhesus IL-18 (rhesus (rhesus/cynomolgus)); assay: Rhesus IL-18 binding ELISA, antibody titrated, OD 490 nm
[3] = target: Rhesus IL-18 (rhesus (rhesus/cynomolgus)); assay: Rhesus IL18 binding ELISA, antibody titrated, OD 490 nm
[4] = target: Rhesus IL-18 (rhesus (rhesus/cynomolgus)); assay: ELISA
[5] = target: Rhesus IL-18 (rhesus (rhesus/cynomolgus)); assay: SPR, Biacore 3000, 25 C

binding [1]	binding [2]	binding [3]	binding [4]	binding [5]	Binder
binds		binds	binds		H3L3 humanised anti-IL-18 antibody (antibody, human IgG1, kappa, V domains shown) VH: QVQLVQSGAEVKKPGASVKVSCKVSGEISTGYYFHFVRRRPGKGLEWMGRIDPEDDSTKYAERFKDRVTMTADTSTDTAYMELSSLRSEDTATYFCTTWRIYRDSSGRPFYVMDAWGQGTLVTVSS VL: DIQMTQSPSSVSASVGDRVTITCLASEDIYTYLTWYQQKPGKAPQLLIYGANKLQDGVPSRFSGSGSGTDYTLTISSLQPEDEGDYYCLQGSKFPLTFGQGTKLEIKR
				binds	H2L1 humanised anti-IL-18 antibody (antibody, human IgG1, kappa, V domains shown) VH: QVQLVQSGAEVKKPGASVKVSCKVSGEISTGYYFHWVRRRPGKGLEWMGRIDPEDDSTKYAERFKDRVTMTEDTSTDTAYMELSSLRSEDTAVYYCTTWRIYRDSSGRPFYVMDAWGQGTLVTVSS VL: DIQMTQSPSSVSASVGDRVTITCLASEDIYTYLTWYQQKPGKAPKLLIYGANKLQDGVPSRFSGSGSGTDFTLTISSLQPEDFATYYCLQGSKFPLTFGQGTKLEIKR
binds			binds	binds	H3L1 humanised anti-IL-18 antibody (antibody, human IgG1, kappa, V domains shown) VH: QVQLVQSGAEVKKPGASVKVSCKVSGEISTGYYFHFVRRRPGKGLEWMGRIDPEDDSTKYAERFKDRVTMTADTSTDTAYMELSSLRSEDTATYFCTTWRIYRDSSGRPFYVMDAWGQGTLVTVSS VL: DIQMTQSPSSVSASVGDRVTITCLASEDIYTYLTWYQQKPGKAPKLLIYGANKLQDGVPSRFSGSGSGTDFTLTISSLQPEDFATYYCLQGSKFPLTFGQGTKLEIKR
		binds			H3L2 humanised anti-IL-18 antibody (antibody, human IgG1, kappa, V domains shown) VH: QVQLVQSGAEVKKPGASVKVSCKVSGEISTGYYFHFVRRRPGKGLEWMGRIDPEDDSTKYAERFKDRVTMTADTSTDTAYMELSSLRSEDTATYFCTTWRIYRDSSGRPFYVMDAWGQGTLVTVSS VL: DIQMTQSPSSVSASVGDRVTITCLASEDIYTYLTWYQQKPGKAPKLLIYGANKLQDGVPSRFSGSGSGTDYTLTISSLQPEDFATYYCLQGSKFPLTFGQGTKLEIKR

Second part, the binder before the results:

Binder	binding [1]	binding [2]	binding [3]	binding [4]	binding [5]
2C10 rat-human chimera (chimaeric antibody 2C10c) (antibody, V domains shown) VH: EVQLQQSGAELVRPGTSVKLSCKVSGEISTGYYFHFVRRRPGQGLEWIGRIDPEDDSTKYAERFKDRATLTAQTSSNTAYLNLSSLTSEDTATYFCTTWRIYRDSSGRPFYVMDAWGQGTLVTVSS VL: DIQMTQSPASLSASLGETVSIECLASEDIYTYLTWYQQKPGKSPQLLIYGANKLQDGVPSRFSGSGSGTQYSLKISGIQPEDEGDYFCLQGSKFPLTFGSGTKLEIKR	binds	binds	binds	binds	
H1L2 humanised anti-IL-18 antibody (antibody, human IgG1, kappa, V domains shown) VH: QVQLVQSGAEVKKPGASVKVSCKVSGEISTGYYFHWVRQAPGKGLEWMGRIDPEDDSTKYAERFKDRVTMTEDTSTDTAYMELSSLRSEDTAVYYCTTWRIYRDSSGRPFYVMDAWGQGTLVTVSS VL: DIQMTQSPSSVSASVGDRVTITCLASEDIYTYLTWYQQKPGKAPKLLIYGANKLQDGVPSRFSGSGSGTDYTLTISSLQPEDFATYYCLQGSKFPLTFGQGTKLEIKR	binds		binds	binds	
H1L3 humanised anti-IL-18 antibody (antibody, human IgG1, kappa, V domains shown) VH: QVQLVQSGAEVKKPGASVKVSCKVSGEISTGYYFHWVRQAPGKGLEWMGRIDPEDDSTKYAERFKDRVTMTEDTSTDTAYMELSSLRSEDTAVYYCTTWRIYRDSSGRPFYVMDAWGQGTLVTVSS VL: DIQMTQSPSSVSASVGDRVTITCLASEDIYTYLTWYQQKPGKAPQLLIYGANKLQDGVPSRFSGSGSGTDYTLTISSLQPEDEGDYYCLQGSKFPLTFGQGTKLEIKR	binds		binds	binds	
H1L1 humanised anti-IL-18 antibody (antibody, human IgG1, kappa, V domains shown) VH: QVQLVQSGAEVKKPGASVKVSCKVSGEISTGYYFHWVRQAPGKGLEWMGRIDPEDDSTKYAERFKDRVTMTEDTSTDTAYMELSSLRSEDTAVYYCTTWRIYRDSSGRPFYVMDAWGQGTLVTVSS VL: DIQMTQSPSSVSASVGDRVTITCLASEDIYTYLTWYQQKPGKAPKLLIYGANKLQDGVPSRFSGSGSGTDFTLTISSLQPEDFATYYCLQGSKFPLTFGQGTKLEIKR					binds
